{
  "source": "PubChem BioAssay (NCATS)",
  "note": "The inconclusive results got no clear call from the source; some entries with a clear call stand among them for comparison. Where the call is inconclusive, the potency comes from a doubtful curve fit. Activity calls are given as the source filed them. Calls follow the shape of the dose curve; as a rule, active = well fitted activation curve with a large enough effect; inconclusive = small, poorly fitted or top-dose-only effect, or another doubt; inactive = no such curve, though single readings can be large or run the other way. Potency is read from the fitted curve at half-maximal effect.",
  "data": [
    {"biological_target": "Rap guanine nucleotide exchange factor 3 (Homo sapiens) (UniProt O95398)", "assay": "Counterscreen qHTS for agonist of cAMP-regulated guanine nucleotide exchange factor 3 (EPAC1) (AID 1645889); also: nearly all actives have a fitted effect of over 40% in size; as to activation: % of control where 0% means no effect", "conditions": "EPAC1 Rap1B-BODIPY-GDP exchange, fluorescence; activation: at 154 µM (top of the series) unless noted", "summary_of_the_method": "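Measured: fluorescence of BODIPY-GDP bound to Rap1B, which falls as exchange proceeds. Conditions include 50 uM competing GDP, 5 and 30 min reads, and a later cAMP challenge for antagonist detection.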", "values": [
      {"smiles": "COC(=O)c1cc2oc(C)cc2n1Cc1cccc(Cl)c1", "activation": "inconclusive: 44.6% [activator]"},
      {"smiles": "O=C(N/N=C\\c1cc([N+](=O)[O-])ccc1N1CCCC1)c1ccccn1", "Potency": "inconclusive: 25.1 nM [activator, full curve, poor fit]"},
      {"smiles": "O=C(COC(=O)CSc1ccc([N+](=O)[O-])cc1)NCc1cccs1", "Potency": "inconclusive: 224 nM [activator, full curve, poor fit]"},
      {"smiles": "O=C1OC(c2ccccc2)(c2ccccc2)c2ccsc21", "Potency": "inconclusive: 15800 nM [activator, full curve, poor fit]"},
      {"smiles": "COC(=O)c1ccc2c(=O)n3nc(Nc4cc(OC)ccc4OC)sc3nc2c1", "activation": "inconclusive: 40.3% [activator]"},
      {"smiles": "CCOc1ccc(C2=CC(c3cccc(Br)c3)n3c(nc4ccccc43)N2)cc1Cl", "note": "(stereo not given)", "Potency": "inconclusive: 28200 nM [activator, partial curve]"},
      {"smiles": "CC1CN(c2nc(-c3ccccc3)nc3ccccc23)CC(C)O1", "note": "(stereo not given)", "activation": "inactive: 21.3% [at 30.8 µM]"},
      {"smiles": "COc1ccc(-n2c(SCC(=O)Nc3ccccc3OC)nc(O)cc2=O)cc1", "activation": "inactive: 2.02% [at 30.8 µM]"},
      {"smiles": "CCCOc1cccc(C2C(C(=O)c3cccs3)=C(O)C(=O)N2Cc2cccnc2)c1", "note": "(stereo not given)", "activation": "inconclusive: 39.7% [activator] [at 30.8 µM]"},
      {"smiles": "O=c1c(-c2ccc(F)cc2)[n+]([O-])c2ccccc2n1OCc1ccccn1", "activation": "inactive: 6.02% [at 30.8 µM]"},
      {"smiles": "N#Cc1cc2c(=O)n3ccccc3nc2n(-c2nnc(SCc3ccccc3Cl)s2)c1=O", "activation": "inconclusive: 54.3% [activator]"},
      {"smiles": "CC(C)(C)c1cc(NC(=O)COC(=O)c2ccc(O)cc2O)n(-c2ccccc2)n1", "Potency": "inconclusive: 15800 nM [activator, partial curve, poor fit]"},
      {"smiles": "CN(Cc1ccccc1F)c1nc(-c2cccs2)nc2ccccc12", "activation": "inactive: 4.35% [at 30.8 µM]"},
      {"smiles": "O=C(OCc1ccc([N+](=O)[O-])cc1)c1cc(=O)c2ccccc2o1", "activation": "inconclusive: 29.4% [activator]"},
      {"smiles": "CCOC(=O)[C@H]1Nc2ccc(Cl)cc2[C@@H]2[C@H]1C1CC(c3ccccc31)N2C(=O)OCc1ccccc1", "note": "(stereo not given in full)", "Potency": "inconclusive: 10 nM [activator, full curve, poor fit]"},
      {"smiles": "CCN(CCn1cccn1)Cc1c(C(=O)N2CCCCCCC2)nc2ccc(Cl)cn12", "Potency": "inconclusive: 10 nM [activator, full curve, poor fit]"},
      {"smiles": "CC(OC(=O)c1nn(C)c(=O)c2ccccc12)C(=O)NC1CCCCC1C", "note": "(stereo not given)", "Potency": "inactive"},
      {"smiles": "CCOC(=O)C1CCCCN1C(=O)c1oc2c(Cl)cc(C)cc2c1C", "note": "(stereo not given)", "activation": "inconclusive: 19.5% [activator]"},
      {"smiles": "CCCn1c(N)c(C(=O)CSc2n[nH]c(-c3ccc(C)cc3)n2)c(=O)[nH]c1=O", "Potency": "inactive"},
      {"smiles": "Cc1cccc(-n2c(O)c(C=Nc3ccccc3O)c3ccccc3c2=O)n1", "Potency": "inconclusive: 10000 nM [activator, single point]"},
      {"smiles": "O=C1CSC2(C(=O)N(Cc3cccc(C(F)(F)F)c3)c3ccccc32)N1c1ccc(F)c(F)c1", "note": "(stereo not given)", "Potency": "inactive"},
      {"smiles": "CCOC(=O)c1c(C)[nH]c(CCC(=O)NCc2cccc(OC)c2)c1C", "activation": "inconclusive: 45.5% [activator]"},
      {"smiles": "COc1cc(NC(=S)NCCC(c2ccccc2)c2ccccc2)cc(OC)c1", "Potency": "inconclusive: 11200 nM [activator, single point]"},
      {"smiles": "COc1cc2ccccc2cc1C(=O)N1CC(C)CC(C)C1", "note": "(stereo not given)", "activation": "inactive: 27.4% [at 30.8 µM]"},
      {"smiles": "COc1ccc(C(Sc2ccccc2)c2ccccc2)cc1OC", "note": "(stereo not given)", "Potency": "inconclusive: 794 nM [activator, full curve, poor fit]"},
      {"smiles": "O=C1S/C(=C\\c2ccc(N3CCOCC3)o2)C(=O)N1c1ccccc1", "activation": "inconclusive: 32.3% [activator]"},
      {"smiles": "COC(=O)c1cc2sc(C)cc2n1Cc1ccccc1", "Potency": "inconclusive: 22400 nM [activator, single point]"},
      {"smiles": "CCOc1ccc(NCc2nc3ccccc3n2CCOc2ccccc2)cc1", "activation": "inconclusive: 59.2% [activator] [at 30.8 µM]"},
      {"smiles": "O=C(CSC1=NCCS1)N1N=C(c2cccs2)CC1c1ccc(F)cc1", "note": "(stereo not given)", "activation": "inactive: 21.2% [at 30.8 µM]"},
      {"smiles": "CC1CCN(C(=O)CSc2nnc(CN3CCOCC3)n2-c2ccccc2)CC1", "Potency": "inactive"},
      {"smiles": "CCNC(=O)C1(C)CCN(C(=O)c2ccc(C(=O)OC)cc2)C1", "note": "(stereo not given)", "activation": "inconclusive: 35.6% [activator]"},
      {"smiles": "CCC(=Cc1ccccc1OC)c1ccncc1", "Potency": "inconclusive: 355 nM [activator, full curve, poor fit]"},
      {"smiles": "CCC(=O)Nc1ccc(C(=O)NNC(=O)c2ccc([N+](=O)[O-])cc2)cc1", "Potency": "inactive"},
      {"smiles": "CCc1ccc(Nc2n[n+](-c3ccccc3)c(-c3cc(OC)c(OC)cc3Br)s2)cc1", "Potency": "inconclusive: 14100 nM [activator, partial curve, poor fit]"},
      {"smiles": "Nc1[nH]c(C(=O)c2ccccc2)c(-c2ccccc2C(F)(F)F)c1C(=O)NCCc1cccs1", "Potency": "inactive"},
      {"smiles": "CC(=O)N1CCN(C(=O)COc2ccc(Br)cc2)CC1", "Potency": "inactive"},
      {"smiles": "CC[C@H]1C(c2ccc(F)cc2)=NN(c2ccccc2)[C@@H]1CO", "Potency": "inconclusive: 7.9 nM [activator, full curve, poor fit]"},
      {"smiles": "COc1ccccc1NC(=O)CSc1nc2sc(C)c(C)c2c(=O)n1C", "activation": "inactive: 15.6% [at 30.8 µM]"},
      {"smiles": "O=C(/C=C/c1ccc(Cl)cc1)Nc1nccs1", "Potency": "inconclusive: 282 nM [activator, full curve, poor fit]"},
      {"smiles": "Fc1ccccc1N1CCN(c2ncnc3onc(-c4ccc(Cl)cc4)c23)CC1", "activation": "inconclusive: 59.9% [activator]"}
    ]}
  ]
}
